Data on one sequence can be found in publication PMC6242908.

This data set deals with MBP-His6 (UniProt P0AEX9). Briefly: EMSA. The conditions noted are these: tag-only control, G9 and G6 also negative; EMSA: same buffer with BSA and RNAsin, 150 nM RNA/DNA, 2% tris-glycine agarose; recombinant protein; protein details: C-terminal His6; label: 5'-fluorescein.

For at least one entry, the source does not settle the construct or the ends of the probe. No signal at the amounts used counts as a negative.

Regarding GGGGGGGGGGGG [G12 RNA (native)], the binding result is “no binding”.
